Reference: patent EP0395309B1, “Human calpastatin-like polypeptide” (TAKARA SHUZO CO. LTD., priority 1989, dated 1995)
Entries after “also recorded” stand apart in the source; their conditions may differ. Part of at least one peptide drawing is inferred or uncertain, most often the ends. Some entries repeat one wording, which the source may state once for all of them. Peptide text beside a SMILES is read from it.

system: calpain; assay: assay of calpain inhibition with casein as the substrate; assay type: biochemical; details: 15 min at 30°C after adding calcium chloride, absorbance of supernatant at 280 nm

| Compound | inhibitory activity toward calpain |
| --- | --- |
| CC[C@H](C)[C@H](NC(=O)[C@H](Cc1ccc(O)cc1)NC(=O)[C@@H](NC(=O)[C@H](CO)NC(=O)[C@H](CO)NC(=O)[C@H](CCSC)NC(=O)[C@@H]1CCCN1C(=O)[C@@H](N)CC(=O)O)[C@@H](C)O)C(=O)N[C@@H](CCC(=O)O)C(=O)N[C@@H](CCC(=O)O)C(=O)N[C@@H](CC(C)C)C(=O)NCC(=O)N[C@@H](CCCCN)C(=O)N[C@@H](CCCNC(=N)N)C(=O)N[C@@H](CCC(=O)O)C(=O)N[C@H](C(=O)N[C@H](C(=O)N[C@H](C(=O)N1CCC[C@H]1C(=O)N1CCC[C@H]1C(=O)N[C@@H](CCCCN)C(=O)N[C@@H](Cc1ccc(O)cc1)C(=O)N[C@@H](CCCNC(=N)N)C(=O)N[C@@H](CCC(=O)O)C(=O)N[C@@H](CC(C)C)C(=O)N[C@@H](CC(C)C)C(=O)O)[C@@H](C)CC)[C@@H](C)O)C(C)C [polypeptide of 26 amino acids] (H-DPMSSTYIEELGKREVTIPPKYRELL-OH) | can inhibit calpain; also recorded: had calpastatin-like activity |
| CC[C@H](C)[C@H](NC(=O)[C@H](Cc1ccc(O)cc1)NC(=O)[C@@H](N)[C@@H](C)O)C(=O)N[C@@H](CCC(=O)O)C(=O)N[C@@H](CCC(=O)O)C(=O)N[C@@H](CC(C)C)C(=O)NCC(=O)N[C@@H](CCCCN)C(=O)N[C@@H](CCCNC(=N)N)C(=O)N[C@@H](CCC(=O)O)C(=O)N[C@H](C(=O)N[C@H](C(=O)N[C@H](C(=O)N1CCC[C@H]1C(=O)N1CCC[C@H]1C(=O)N[C@@H](CCCCN)C(=O)N[C@@H](Cc1ccc(O)cc1)C(=O)N[C@@H](CCCNC(=N)N)C(=O)N[C@@H](CCC(=O)O)C(=O)N[C@@H](CC(C)C)C(=O)N[C@@H](CC(C)C)C(=O)O)[C@@H](C)CC)[C@@H](C)O)C(C)C [polypeptide of 21 amino acids] (H-TYIEELGKREVTIPPKYRELL-OH) | can inhibit calpain; also recorded: had calpastatin-like activity |
| CC[C@H](C)[C@H](NC(=O)[C@H](Cc1ccc(O)cc1)NC(=O)[C@@H](N)[C@@H](C)O)C(=O)N[C@@H](CCC(=O)O)C(=O)N[C@@H](CCC(=O)O)C(=O)N[C@@H](CC(C)C)C(=O)NCC(=O)N[C@@H](CCCCN)C(=O)N[C@@H](CCCNC(=N)N)C(=O)N[C@@H](CCC(=O)O)C(=O)N[C@H](C(=O)N[C@H](C(=O)N[C@H](C(=O)N1CCC[C@H]1C(=O)N1CCC[C@H]1C(=O)N[C@@H](CCCCN)C(=O)N[C@@H](Cc1ccc(O)cc1)C(=O)N[C@@H](CCCNC(=N)N)C(=O)O)[C@@H](C)CC)[C@@H](C)O)C(C)C [polypeptide of 18 amino acids] (H-TYIEELGKREVTIPPKYR-OH) | can inhibit calpain; also recorded: still has activity; also recorded: inhibited calpain |
| CC[C@H](C)[C@H](NC(=O)[C@@H](N)Cc1ccc(O)cc1)C(=O)N[C@@H](CCC(=O)O)C(=O)N[C@@H](CCC(=O)O)C(=O)N[C@@H](CC(C)C)C(=O)NCC(=O)N[C@@H](CCCCN)C(=O)N[C@@H](CCCNC(=N)N)C(=O)N[C@@H](CCC(=O)O)C(=O)N[C@H](C(=O)N[C@H](C(=O)N[C@H](C(=O)N1CCC[C@H]1C(=O)N1CCC[C@H]1C(=O)N[C@@H](CCCCN)C(=O)N[C@@H](Cc1ccc(O)cc1)C(=O)N[C@@H](CCCNC(=N)N)C(=O)O)[C@@H](C)CC)[C@@H](C)O)C(C)C [polypeptide with 17 amino acids] (H-YIEELGKREVTIPPKYR-OH) | almost undetectable |
